Measurements from paper PMC9908615.
No constants are given. Whether binding was seen depends on the method and setting. In cells and extracts the contact can be indirect. Here binding means that the protein was enriched with, or labelled near, the bait; the list need not be complete.

Amino acid sequences for entries named in this document (tags omitted). A change or cut given only in a name is not applied to a line headed by its entry.
UniProt Q7Z494: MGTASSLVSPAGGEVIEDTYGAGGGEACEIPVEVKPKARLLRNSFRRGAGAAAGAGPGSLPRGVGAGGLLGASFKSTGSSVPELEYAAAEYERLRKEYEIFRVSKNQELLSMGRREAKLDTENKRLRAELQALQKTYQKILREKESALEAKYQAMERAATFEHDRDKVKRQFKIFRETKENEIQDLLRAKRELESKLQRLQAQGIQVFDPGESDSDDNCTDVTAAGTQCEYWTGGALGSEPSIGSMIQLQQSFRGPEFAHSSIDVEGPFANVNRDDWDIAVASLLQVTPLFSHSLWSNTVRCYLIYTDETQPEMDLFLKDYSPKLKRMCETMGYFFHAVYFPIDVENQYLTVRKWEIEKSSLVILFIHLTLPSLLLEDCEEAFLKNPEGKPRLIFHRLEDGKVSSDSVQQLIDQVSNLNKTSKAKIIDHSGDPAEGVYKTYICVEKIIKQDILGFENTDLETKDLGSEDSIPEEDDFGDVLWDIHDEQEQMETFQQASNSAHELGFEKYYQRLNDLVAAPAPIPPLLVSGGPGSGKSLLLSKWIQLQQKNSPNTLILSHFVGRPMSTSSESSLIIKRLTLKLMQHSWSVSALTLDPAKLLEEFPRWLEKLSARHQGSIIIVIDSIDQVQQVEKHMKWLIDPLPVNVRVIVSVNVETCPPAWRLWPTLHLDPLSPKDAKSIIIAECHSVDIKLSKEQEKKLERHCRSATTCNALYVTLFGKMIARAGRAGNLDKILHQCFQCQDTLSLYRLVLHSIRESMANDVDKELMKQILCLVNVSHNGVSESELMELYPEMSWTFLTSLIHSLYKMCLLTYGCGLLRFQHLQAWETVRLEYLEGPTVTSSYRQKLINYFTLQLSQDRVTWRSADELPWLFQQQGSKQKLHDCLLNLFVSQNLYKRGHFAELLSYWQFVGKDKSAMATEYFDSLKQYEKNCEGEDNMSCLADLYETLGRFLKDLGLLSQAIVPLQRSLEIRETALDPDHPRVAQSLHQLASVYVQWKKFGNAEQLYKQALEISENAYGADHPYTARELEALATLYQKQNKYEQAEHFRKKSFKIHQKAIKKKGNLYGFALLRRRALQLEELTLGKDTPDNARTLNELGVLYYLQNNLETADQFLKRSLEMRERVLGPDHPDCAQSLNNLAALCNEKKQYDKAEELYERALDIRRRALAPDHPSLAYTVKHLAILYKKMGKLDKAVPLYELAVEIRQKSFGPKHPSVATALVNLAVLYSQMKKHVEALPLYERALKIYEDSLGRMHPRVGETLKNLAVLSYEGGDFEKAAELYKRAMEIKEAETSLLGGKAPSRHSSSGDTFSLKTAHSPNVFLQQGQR

B1: PICALM (protein, UniProt Q7M6Y3 1-660)
chain: MSGQSLTDRITAAQHSVTGSAVSKTVCKATTHEIMGPKKKHLDYLIQCTNEMNVNIPQLADSLFERTTNSSWVVVFKSLITTHHLMVYGNERFIQYLASRNTLFNLSNFLDKSGLQGYDMSTFIRRYSRYLNEKAVSYRQVAFDFTKVKRGADGVMRTMNTEKLLKTVPIIQNQMDALLDFNVNSNELTNGVINAAFMLLFKDAIRLFAAYNEGIINLLEKYFDMKKNQCKEGLDIYKKFLTRMTRISEFLKVAEQVGIDRGDIPDLSQAPSSLLDALEQHLASLEGKKIKDSTAASRATTLSNAVSSLASTGLSLTKVDEREKQAALEEEQARLKALKEQRLKELAKKPHTSLTTAASPVSTSAGGIMTAPAIDIFSTPSSSNSTSKLPNDLLDLQQPTFHPSVHAMSAAPQGASTWGDPFSATLDAVEDAIPSLNPFLTKSSGDVHLPIASDVSTFTTRTPTHEMFVGFSPSPVAQPHSSAGLNVDFESVFGNKSTNVAVDSGGFDELGGLLKPTVASQNQSLPVAKLPPNKLVSDDLDSSLANLVGNLGIGNGTTKNDVSWSQPGEKKLTGGSNWQPKVAPTTAWSAATMNGMHFPQYAPPVMAYPATTPTGMIGYGIPPQMGSVPVMTQPTLIYSQPVMRPPNPFGPVSGAQIQFM
B2: OFD1 (protein, UniProt Q80Z25 1-1017)
chain: MAQSNMPHKSDVLSQDELRKKLYQTFKDRGVLDTLQTQLRNQLIHELMHPVLSGEVKPPSISVEGSALLIGASNSLVADHLQRCGYEYSLSVFFPESGLAKEKIFTMQDLLQLIRINPSSSLYKSLISGFDKENKKGFLMSFLKELAEYYQAKESCDAETQTSTTFPSQVSLAEKFQLIDAQFADGFPHRSKLESLETKLNEYKKEVQHQLQVEMCHKLKYFREAEITKVKMEERRKYEKELAEFQNEFERTCQAKNEALISQEKNSLERIKKHREMESKEIYAQRQLLLNDIALLRGREAELKERIETFELTQKLQEEKIKSEAEALERREQNLKNIEDTYDQKLKTELLKYQLELKDDYITRTNKLLEEERKNKEKTIHLQEELTVINSKKEELSKSVKHMKEVELELESVKAQFLAISKQNHLLNEKVREMSDYSQLKEEKVELQAQNKLLKLQLEETRNENLRLLDRITQPPPELVIFQKELQKTEKAMELEHKDFETHRQALEKQLQSEIENSAQLRTQIAEYDASVKRLTVQVAELKSQLKQTQIALENEVYRNPKHSLIHSLSGLLLSGKMAPHSEDKSGDFLNVPLEQNKVIAGAVMSRVPPYVNTATEASSPESDFEFIASSTKAKVRELEQEAERLEKAFRTYYQRATQNPSTSPQPAKSPPSVNSVAALRSIASSSMDRPVSAEDRVVSEQPLGDMLKEEMSDMSKAFMGSVVSRPRRTSSSTRLSSTPHPKSRRSLDNEMYLEGLGRLHMTSSSPLLDRVSASPAASPSPCPERTAQASPVPSRHSFSGLPEQNACLYQRQTETQDKSELSNVDKQSLKDEKFEPPFRWNKTEQFEAEGLHPAGDMPGIDFAVATQSSRLISYDYPSAVQSQTGEQDEQELWELHMKERRQREEQRHNERQEALERERRELGKLEQERRMIEESLKMEMEEELEKSVQDQKDKSAHCENTLEKYMKIIQQRQEESNADKSSKKSGKECSLVDMMMPSDKDESSPGFSHEEPDDMW
B3: TAB3 (protein, UniProt Q571K4 1-716)
chain: MAQNSPQLDIQVLHDLRQRFPEIPEGVVSQCMLQNNNNLEACCRALSQESSKYLYMEYHSPEDNRMNRNRLLHINLGIHSPSSYHPGDGAHLNGGRTLVHSSSDGHIDPQHTAGKQLICLVQEPHSAPAVVAATPNYNPFFMNEQNRSAATPPSQPPQQPSSMQTGMNPSAMQGPSPPPPPPSYMHIPRYSTNPITVTVSQNLPSGQTVPRALQILPQIPSNLYGSPGSIFIRQTSQSSSGRQTPQNAPWQSSPQGPVPHYSQRPLPVYPHQQNYQPSQYSPKQQQIPQSVYHSPPPSQCPSPFSSPQHQVQPPQLGHPSSHVFMPPSPSTTPPHLYQQGPPSYQKPGSHSVAYLPYTASSLPKGSMKKIEITVEPSQRPGTAITRSPSPISNQPSPRNQHSLYTATTPPSSSPSRGISSQPKPPFSVNPVYITYTQPTGPSCAPSPSPRVIPNPTTVFKITVGRATTENLLNLVDQEERSAAPEPIQPISVIPGSGGEKGNHKYQRSSSSGSDDYAYTQALLLHQRARMERLAKQLKLEKEELERLKAEVNSMEHDLMQRRLRRVSCTTAIPTPEEMTRLRSTNRQLQINVDCTLKEVDLLQSRGNFDPKAINNFYDHIEPGPVVPPKPSKKDSSDSCAIERKARRISVTSKAPVDIHDAQAAAADEHLSICKQSARTQPRDEDYEGAPWNCDSCTFLNHPALNRCEQCEMPRYT
B4: TAB1 (protein, UniProt Q8CF89 1-502)
chain: MAAQRRSLLQSEQQPSWTDDLPLCHLSGVGSASNRSYSADGKGTESHPPEDNWLKFRSENNCFLYGVFNGYDGNRVTNFVAQRLSAELLLGQLNTEHTEADVRRVLLQAFDVVERSFLESIDDALAEKASLQSQLPEGVPQHQLPPQYQKILERLKALEREISGGAMAVVAVLLNSKLYVANVGTNRALLCKSTVDGLQVTQLNMDHTTENEDELFRLSQLGLDAGKIKQMGVICGQESTRRIGDYKVKYGYTDIDLLSAAKSKPIIAEPEIHGAQPLDGVTGFLVLMSEGLYKALEAAHGPGQANQEIAAMIDTEFAKQTSLDAVAQAVVDRVKRIHSDTFASGGERAKFCPRHEDMTLLVRNFGYPLGEMSQPTPTPAPGGRVYPVSVPYSSAQSTSKTSVTLSLVMPSQGQMVNGSHSASTLDEATPTLTNQSPTLTLQSTNTHTQSSSSSSDGGLFRSRPAHSLPPGEDGRVEPYVDFAEFYRLWSVDHGEQSVMTAP
B5: EPN3 (protein, UniProt Q91W69 1-636)
chain: MTTSALRRQVKNIVHNYSEAEIKVREATSNDPWGPPSSLMSEIADLTFNTVAFAEVMGMVWRRLNDSGKNWRHVYKALTLLDYLLKTGSERVAHQCRENLYTIQTLKDFQYIDRDGKDQGVNVREKVKQVMALLKDEERLRQERTHALKTKERMALEGMGIGSGQLGYSRRSRGSPSSYTSASSSPRYASDLEQARPQTSGEEELQLQLALAMSREEAERPVPPASHRDEDLQLQLALSLSRQEHEKGVRSWKGDDSPVANGAEPAGQRRQRDREPEREERKEEEKLKTSQSSILDLADIFAPAPALPSTHCSADPWDIPGLRPNTEPSGSSWGPSADPWSPVPSGNALSRSQPWDLLPTLSSSEPWGRTPVLPSGPPIADPWAPSSPTRKLPSTGADPWGASMETSDTSALGGASPFDPFAKPLESTEPKESRDSAQALPTGKSPSTVELDPFGDSSPSCKQNGMKEPEALDLGVLGEALPQQPGKEARPCRTPESFLGPSASSLVNLDSLVKAPLAARTRNPFLTGLGVPSPTNPFGAGDQGRPTLNQMRTGSPALGLPPGGPVGAPVGSMTYSASLPLPLSSVPVGATLPASVSVFPQAGAFAPPPASLPQPLLPTSGPMGPLPPQAGTNPFL
B6: TAB2 (protein, UniProt Q99K90 1-693)
chain: MAQGSHQIDFQVLHDLRQKFPEVPEVVVSRCMLQNNNNLDACCAVLSQESTRYLYGEGDLNFSDESGISGLRNHMTSLNLDLQSQNVYHHGREGSRVNGSRTLTHSVSDGQLHGGQSNNELFQQEPQTAPAQVPQGFNVFGMPSTSGASNSTPHLGFHLGSKGTSNLSQQTPRFNPIMVTLAPNIQTGRSTPTSLHIHGVPPPVLNSPQGNSIYIRPYITTPSGTARQTQQHSGWVSQFNPMNPQQAYQPSQPGPWTTYPASNPLPHTSTQQPNQQGHQTSHVYMPISSPTTPQPPTIHSSGSSQSSAHSQYNIQNISTGPRKNQIEIKLEPPQRNSSSKLRSSGPRTASTSSLVNSQTLNRNQPTVYIAASPPNTDEMISRSQPKVYISANATAGDEQGMRNQPTLFISTNSGPSAASRNMSGQVSMGPAFIHHHPPKSRVLGGNSATSPRVVVTQPNTKYTFKITVSPNKPPAVSPGVVSPTFELTNLLNHPDHYVETENIQHLTDPALAHVDRISEARKLSMGSDDAAYTQALLVHQKARMERLQRELEMQKKKLDKLKSEVNEMENNLTRRRLKRSNSISQIPSLEEMQQLRSCNRQLQIDIDCLTKEIDLFQARGPHFNPSAIHNFYDNIGFVGPVPPKPKDQRSTIKAPKTQDAEDEEGAQWNCTACTFLNHPALIRCEQCEMPRHF
B7: TOM1L2 (protein, UniProt Q5SRX1 1-507)
chain: MEFLLGNPFSTPVGQCLEKATDGSLQSEDWTLNMEICDIINETEEGPKDAIRALKKRLSGNRNYREVMLALTVLETCVKNCGHRFHLLVANRDFIDSVLVKIISPKNNPPTIVQDKVLALIQAWADAFRSSPDLTGVVHIYEELKRRGIEFPMADLDALSPIHTPQRSVPEMDPAATIPRSQTQPRTTAGTYSSPPPASYSTLQAPALSVTGPITANSEQIARLRSELDIVRGNTKVMSEMLTEMVPGQEDSSDLELLQELNRTCRAMQHRIVELISRVSNEEVTEELLHVNDDLNNVFLRYERFERYRSGRSVQNASNGVLSEVTEDNLIDLGPGSPAVVSPMVGSTAPPSSLSSQLAGLDLGTESVSGTLSSLQQCKPQDGFDMFAQTRGNSLAEQRKTVTYEDPQAVGGLASALDNRKQNSEMIPVAQPSVMDDIEVWLRTDLKGDDLEEGVTSEEFDKFLEERAKAAETVPDLPSPPTEAPAPASNTSTRKKPERSDDALFAL
B8: EPS15L1 (protein, UniProt Q60902 1-907)
chain: MAAPLVPLSQQIPGGNPLYESYYKQVDPAYTGRVGASEAALFLKKSGLSDIILGKIWDLADPEGKGFLDKQGFYVALRLVACAQSGHEVTLSSLSLTMPPPKFHDTSSPLMATQSSAETHWAVRVEEKAKFDGIFESLLPVNGLLSGDKVKPVLMNSKLPLDVLGRVWDLSDIDKDGHLDRDEFAVAMHLVYRALEKEPVPSILPPPLIPPSKRKKTVFAGAVPVLPASPPPKDSLRSTPSHGSVSSLNSTGSLSPKHSVKQPPVAWVVPVADKMRFDEIFLKTDLDLDGYVSGQEVKEIFMHSGLTQNLLAHIWALADTRQTGKLSKEQFALAMYFIQQKVSKGIDPPQVLSPDMVPPSERGTPIPDSSSTLASGEFTGVKELDDISQEIAQLQREKYSLEQDIREKEEAIRQKTSEVQELQNDLDRETSSLQELEAQKQDAQDRLDEMDQQKAKLRDMLSDVRQKCQDETQTISSLKTQIQSQESDLKSQEDDLNRAKSELNRLQQEETQLEQSIQAGRAQLETILRSLKCTQDDINQARSKLSQLQESHLEAHRSLEQYDQVPDGVSGTSLPDLATLNEGILLAERGGFGAMDDPFKNKALLFSNNSQELHPDPFQAEDPFKSDPFKGADPFKGDPFQSDPFSEQQTAATDPFGGDPFKESDPFHSSSSDDFFKKQTKNDPFTSDPFTKNPSLPSKLDPFESSDPFSSSSISSKGSDPFGTLDPFGSSSFSSAEGFADFSQMSKPPPSGPFSSSLGGTGFSDDPFKSKQDTPALPPKKPAPPRPKPPSGQSTPVSQLGSSDFPESPDPFQPLGADSGDPFQNKKGFGDPFSGKDPFAPSSSAKPPKTSSSGFADFTSFGNEEQQLAWAKRESEKAEQERLARLRRQEQEDLELAIALSKADMPA

Target: NPHP3-BioID2-RAD23B (aa185-409) (human) (UniProt Q7Z494)
Assay: proximity labelling; NPHP3-BioID2-RAD23B (aa185-409) stably expressed in IMCD3 Flp-In cells, starvation medium 48 h, 10 uM biotin for the last 24 h; RIPA lysis, StrepTactin Superflow beads 3 h at 4°C, on-bead trypsin digestion, label-free MS; enrichment against the NPHP3-BioID2 control line; 6 replicates per cell line

binding | Binder
binds | B1
binds | B2
binds | B3
binds | B4
binds | B5
binds | B6
binds | B7
binds | B8
